Binding data for two molecules are collected here from PMC12536259.

Results are given in words; binding and its absence hold for the method and conditions named. Binding seen in cells or lysates may run through a third protein. Some binding calls cover weakened binding; strength is not graded here. Tags and fused reporters may be left off the sequences shown.

In one assay the target is T1, Ace2-12PK (S. pombe) (UniProt O14258).
T1 sequence: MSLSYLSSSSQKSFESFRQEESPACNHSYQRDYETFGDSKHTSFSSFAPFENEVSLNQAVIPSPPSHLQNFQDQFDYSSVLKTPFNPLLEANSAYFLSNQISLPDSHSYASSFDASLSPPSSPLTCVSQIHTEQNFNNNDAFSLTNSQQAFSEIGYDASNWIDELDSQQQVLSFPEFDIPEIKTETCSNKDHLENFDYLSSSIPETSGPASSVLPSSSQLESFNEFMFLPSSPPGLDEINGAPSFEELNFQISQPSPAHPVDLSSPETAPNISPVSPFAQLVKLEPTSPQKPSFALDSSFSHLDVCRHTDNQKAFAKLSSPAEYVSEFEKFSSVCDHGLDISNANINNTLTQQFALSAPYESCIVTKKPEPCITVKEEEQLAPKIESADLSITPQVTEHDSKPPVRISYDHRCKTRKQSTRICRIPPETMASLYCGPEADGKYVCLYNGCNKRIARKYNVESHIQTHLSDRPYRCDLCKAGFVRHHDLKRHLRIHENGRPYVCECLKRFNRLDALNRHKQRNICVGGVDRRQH
In words: co-IP; reciprocal: anti-PK or anti-DDDDK (FLAG) antibody on Dyna-G beads, S. pombe crude lysate, overnight at 4°C; IP buffer 50 mM HEPES 7.6, 75 mM KCl, 0.1% NP-40, 20% glycerol, 1 mM EDTA; six washes; detection by immunoblot. A general note: In western blotting, separated proteins are transferred to a membrane and probed.

A further assay addresses T2, Med8-5FLAG (S. pombe) (UniProt O94646).
T2 sequence: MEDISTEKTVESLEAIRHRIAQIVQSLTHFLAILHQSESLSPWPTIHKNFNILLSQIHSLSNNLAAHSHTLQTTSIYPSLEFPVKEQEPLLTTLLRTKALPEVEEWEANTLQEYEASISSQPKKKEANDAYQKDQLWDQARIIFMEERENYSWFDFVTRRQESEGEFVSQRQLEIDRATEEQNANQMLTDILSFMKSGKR
Described as above.

B1: Med8-5FLAG (protein, UniProt O94646 1-200)
chain: T2 sequence
In the case of B1, the binding result in the assay with Ace2-12PK (S. pombe) is given as “binds”.

B2: Ace2-12PK (protein, UniProt O14258 1-533)
chain: T1 sequence
As for B2, in the assay with Med8-5FLAG (S. pombe), the binding entry was “binds”.
